Laboratory results: PubChem BioAssay AID1259424 (University of Nebraska Medical Center, 2018)

Aim: 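Find knockdowns that reproduce the expression shifts seen after KSR1 loss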 (primary screen)
System: human HCT116 colon cancer cells
Reagent: siRNA pool against human genes, 50 nM
Detection: 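Six signature mRNAs by branched-DNA multiplex assay, scaled to two housekeeping genes and non-targeting median, log2; matched to mean KSR1 knockdown profile by Pearson correlation and euclidean distance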
Scale: mean correlation with KSR1 profile and KSR1 correlation: higher = expression change more like KSR1 knockdown; mean distance from KSR1 profile: higher = expression change less like KSR1 knockdown
In all, the deposit lists about 14,000 reagents; this is an unselected part. 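Higher correlation or smaller distance means closer resemblance to KSR1 loss; control wells, including KSR1 knockdowns, recur on many plates.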 The record does not give: the time to read-out.

The opening 3 records, ahead of the listing:
Gene | mean correlation with KSR1 profile | mean distance from KSR1 profile | KSR1 correlation, replicate 1 | KSR1 correlation, replicate 2 | KSR1 correlation, replicate 3
GOSR2 (GeneID 9570) | -0.281 | 1.49 | -0.37 | -0.342 | -0.239
HOXB6 (GeneID 3216) | -0.0417 | 4.19 | 0.221 | 0.0338 | -0.0748
TBX1 (GeneID 6899) | -0.484 | 3.76 | -0.578 | -0.348 | -0.636

The listing, repeating the preview:
Gene | mean correlation with KSR1 profile | mean distance from KSR1 profile | KSR1 correlation, replicate 1 | KSR1 correlation, replicate 2 | KSR1 correlation, replicate 3
GOSR2 (GeneID 9570) | -0.281 | 1.49 | -0.37 | -0.342 | -0.239
HOXB6 (GeneID 3216) | -0.0417 | 4.19 | 0.221 | 0.0338 | -0.0748
TBX1 (GeneID 6899) | -0.484 | 3.76 | -0.578 | -0.348 | -0.636
PUM3 (GeneID 9933) | 0.0636 | 3.28 | 0.0918 | -0.0634 | 0.276
HESX1 (GeneID 8820) | 0.307 | 2.57 | 0.37 | 0.562 | 0.15
CDH3 (GeneID 1001) | -0.129 | 1.83 | -0.118 | -0.204 | -0.265
SUPT16H (GeneID 11198) | -0.779 | 1.24 | -0.314 | -0.464 | -0.685
SLCO4A1 (GeneID 28231) | -0.00215 | 2.68 | -0.22 | -0.312 | -0.147
SLC35E1 (GeneID 79939) | 0.23 | 2.6 | 0.226 | 0.311 | 0.212
SLC6A4 (GeneID 6532) | 0.18 | 1.81 | -0.0158 | 0.166 | 0.191
PACS1 (GeneID 55690) | -0.433 | 2.26 | -0.481 | -0.35 | -0.51
NUP133 (GeneID 55746) | -0.685 | 1.43 | -0.817 | -0.391 | -0.0591
DDX10 (GeneID 1662) | 0.224 | 2.06 | 0.141 | 0.272 | 0.186
PCSK5 (GeneID 5125) | -0.308 | 3.55 | -0.264 | -0.0254 | -0.44
LINC01587 (GeneID 10141) | -0.19 | 1.3 | -0.249 | -0.363 | -0.0202
XPO5 (GeneID 57510) | 0.313 | 1.66 | 0.441 | 0.137 | 0.433
CLCA4 (GeneID 22802) | -0.501 | 1.83 | -0.511 | -0.372 | -0.518
ZNF415 (GeneID 55786) | 0.579 | 0.614 | 0.578 | -0.16 | 0.619
PPP1R14C (GeneID 81706) | 0.747 | 0.788 | 0.476 | 0.576 | 0.783
VSNL1 (GeneID 7447) | 0.228 | 1.47 | 0.201 | -0.0175 | 0.433
MUC13 (GeneID 56667) | -0.517 | 1.86 | -0.277 | -0.649 | -0.786
GRM4 (GeneID 2914) | 0.733 | 1.25 | 0.593 | 0.807 | 0.645
ARHGEF28 (GeneID 64283) | -0.368 | 3.11 | -0.497 | -0.423 | -0.19
SDC4 (GeneID 6385) | 0.626 | 2.77 | 0.379 | 0.66 | 0.537
MPV17 (GeneID 4358) | 0.295 | 2.01 | -0.0344 | 0.31 | 0.197
ANK3 (GeneID 288) | 0.261 | 1.3 | 0.288 | 0.386 | -0.0423
PPP2R3C (GeneID 55012) | 0.505 | 0.568 | 0.406 | 0.305 | 0.396
ADH6 (GeneID 130) | 0.165 | 2.23 | 0.104 | 0.201 | 0.144
CPEB1 (GeneID 64506) | 0.357 | 1.51 | 0.436 | 0.088 | 0.455
CRLF3 (GeneID 51379) | -0.221 | 2.37 | -0.179 | -0.336 | -0.247
NDP (GeneID 4693) | -0.0181 | 2.61 | -0.489 | 0.161 | 0.248
MYEF2 (GeneID 50804) | -0.474 | 2.51 | -0.458 | -0.444 | -0.468
CTNND2 (GeneID 1501) | 0.0934 | 1.16 | -0.168 | -0.277 | 0.418
NTF3 (GeneID 4908) | -0.13 | 1.44 | -0.0281 | 0.0825 | -0.274
TBC1D8 (GeneID 11138) | -0.616 | 3.48 | -0.562 | -0.62 | -0.478
ELOVL4 (GeneID 6785) | -0.433 | 3.32 | -0.165 | 0.305 | -0.846
GADD45B (GeneID 4616) | 0.829 | 0.843 | 0.88 | 0.662 | 0.507
DSCAML1 (GeneID 57453) | -0.606 | 3.38 | -0.599 | -0.572 | -0.322
PTGES2 (GeneID 80142) | 0.564 | 1.26 | 0.575 | 0.366 | 0.62
BIRC6 (GeneID 57448) | 0.584 | 1.05 | 0.541 | 0.695 | 0.384
SORT1 (GeneID 6272) | 0.726 | 1.39 | 0.799 | 0.547 | 0.718
NXPH1 (GeneID 30010) | -0.725 | 2.63 | -0.69 | -0.702 | -0.613
EPHA1 (GeneID 2041) | -0.0664 | 2.39 | -0.00117 | -0.303 | -0.296
LUC7L (GeneID 55692) | 0.0532 | 2.71 | 0.233 | 0.0974 | -0.337
TXNRD1 (GeneID 7296) | -0.341 | 1.51 | -0.488 | -0.323 | -0.0742
AKIRIN1 (GeneID 79647) | 0.239 | 2.57 | 0.184 | 0.0697 | 0.416
SH3GLB1 (GeneID 51100) | -0.632 | 2.19 | -0.535 | -0.464 | -0.135
ABCC4 (GeneID 10257) | 0.663 | 0.637 | 0.813 | 0.737 | 0.334
ABCA1 (GeneID 19) | -0.29 | 1.66 | -0.077 | -0.204 | -0.281
HDAC5 (GeneID 10014) | -0.5 | 0.908 | 0.601 | -0.789 | 0.272
SMURF1 (GeneID 57154) | -0.08 | 1.26 | -0.249 | 0.0838 | -0.0538
GAPDH (GeneID 2597) | -0.1 | 1.57 | 0.171 | -0.144 | -0.042
OR5P3 (GeneID 120066) | 0.944 | 1.18 | 0.876 | 0.963 | 0.95
DHRS3 (GeneID 9249) | 0.118 | 1.49 | 0.133 | 0.127 | 0.496
NCBP3 (GeneID 55421) | -0.0542 | 2.42 | 0.144 | -0.259 | -0.161
PDE4DIP (GeneID 9659) | -0.0859 | 1.53 | 0.271 | 0.342 | -0.329
GPN2 (GeneID 54707) | 0.215 | 2.03 | 0.43 | 0.312 | 0.175
SYTL1 (GeneID 84958) | 0.827 | 2.14 | 0.891 | 0.653 | 0.812
FADD (GeneID 8772) | -0.0268 | 1.6 | -0.169 | 0.0727 | 0.138
CCDC68 (GeneID 80323) | -0.81 | 2.9 | -0.612 | -0.194 | -0.944
TUSC2 (GeneID 11334) | 0.191 | 3.33 | 0.374 | -0.0138 | 0.231
FBP1 (GeneID 2203) | 0.612 | 1.55 | 0.45 | 0.588 | 0.614
SRSF4 (GeneID 6429) | 0.713 | 0.805 | 0.749 | 0.567 | 0.718
